From patent CN113621066A
Results are given in words; binding and its absence hold for the method and conditions named. Some entries that bind do so weakly or less than the wild type.

Chains of the proteins cited; added tags and fusions are not shown. Residues count along the entry.
UniProt Q15116, residues 25-170: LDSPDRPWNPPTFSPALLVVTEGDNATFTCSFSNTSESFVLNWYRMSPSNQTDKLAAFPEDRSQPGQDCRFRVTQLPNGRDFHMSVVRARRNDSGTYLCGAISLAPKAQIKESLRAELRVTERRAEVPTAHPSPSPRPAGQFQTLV

Target: PD-1抗原 (human) (UniProt Q15116)
Assay: ELISA, antibody 3-fold serial dilution from 3 μg/mL, 12 points

B1: 抗PD-1B8抗体 (antibody, V domains shown)
VH: EVQLVESGGGLVQPGGSLRLSCAASGFTFSSYDMSWVRQAPGKGLEWVSAISGGGRYTYYADSVKGRFTISRDNSKNTLYLQMNSLRAEDTAVYYCAVRFGESWFSYWGQGTTVTVSS
VL: DIQMTQSPSSLSASVGDRVTITCRASQGINNYLAWFQQKPGKAPKSLIYRASRLVSGVPSRFSGSGSGTDFTLTISSLQPEDFATYYCLQYDEFTLTFGQGTKLEIK
binding: binds
